Data: publication PMC11763377
No constants are given. Whether binding was seen depends on the method and setting. In cells and extracts the contact can be indirect. Some binding calls cover weakened binding; strength is not graded here.

Protein sequences, listed by entry. Tags and fused reporters are not part of them.
UniProt P09874: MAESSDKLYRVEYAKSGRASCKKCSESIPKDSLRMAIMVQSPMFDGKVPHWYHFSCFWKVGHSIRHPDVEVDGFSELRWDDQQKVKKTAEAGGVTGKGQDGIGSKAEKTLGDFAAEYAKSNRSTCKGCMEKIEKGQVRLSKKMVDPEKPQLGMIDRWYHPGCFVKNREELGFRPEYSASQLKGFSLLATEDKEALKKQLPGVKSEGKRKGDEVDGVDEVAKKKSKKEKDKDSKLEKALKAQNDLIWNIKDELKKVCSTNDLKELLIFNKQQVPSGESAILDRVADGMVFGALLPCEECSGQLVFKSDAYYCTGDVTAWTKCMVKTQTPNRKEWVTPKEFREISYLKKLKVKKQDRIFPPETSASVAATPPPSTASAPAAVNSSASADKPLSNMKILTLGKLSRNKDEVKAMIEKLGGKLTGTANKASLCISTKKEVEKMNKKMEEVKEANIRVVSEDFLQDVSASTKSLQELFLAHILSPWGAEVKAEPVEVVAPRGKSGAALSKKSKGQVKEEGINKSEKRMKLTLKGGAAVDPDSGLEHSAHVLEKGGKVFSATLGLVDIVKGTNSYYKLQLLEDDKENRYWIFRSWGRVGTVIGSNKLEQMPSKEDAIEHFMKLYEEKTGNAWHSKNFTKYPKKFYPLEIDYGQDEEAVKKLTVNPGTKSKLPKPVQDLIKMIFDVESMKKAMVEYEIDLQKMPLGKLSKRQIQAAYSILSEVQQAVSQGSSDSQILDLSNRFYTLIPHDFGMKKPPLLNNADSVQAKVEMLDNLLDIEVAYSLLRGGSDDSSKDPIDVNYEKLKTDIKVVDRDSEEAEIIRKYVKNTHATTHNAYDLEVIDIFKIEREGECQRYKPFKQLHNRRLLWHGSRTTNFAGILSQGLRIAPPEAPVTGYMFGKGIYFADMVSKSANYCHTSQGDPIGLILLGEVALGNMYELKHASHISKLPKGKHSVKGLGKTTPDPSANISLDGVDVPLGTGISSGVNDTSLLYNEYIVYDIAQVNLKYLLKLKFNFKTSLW
UniProt P35579: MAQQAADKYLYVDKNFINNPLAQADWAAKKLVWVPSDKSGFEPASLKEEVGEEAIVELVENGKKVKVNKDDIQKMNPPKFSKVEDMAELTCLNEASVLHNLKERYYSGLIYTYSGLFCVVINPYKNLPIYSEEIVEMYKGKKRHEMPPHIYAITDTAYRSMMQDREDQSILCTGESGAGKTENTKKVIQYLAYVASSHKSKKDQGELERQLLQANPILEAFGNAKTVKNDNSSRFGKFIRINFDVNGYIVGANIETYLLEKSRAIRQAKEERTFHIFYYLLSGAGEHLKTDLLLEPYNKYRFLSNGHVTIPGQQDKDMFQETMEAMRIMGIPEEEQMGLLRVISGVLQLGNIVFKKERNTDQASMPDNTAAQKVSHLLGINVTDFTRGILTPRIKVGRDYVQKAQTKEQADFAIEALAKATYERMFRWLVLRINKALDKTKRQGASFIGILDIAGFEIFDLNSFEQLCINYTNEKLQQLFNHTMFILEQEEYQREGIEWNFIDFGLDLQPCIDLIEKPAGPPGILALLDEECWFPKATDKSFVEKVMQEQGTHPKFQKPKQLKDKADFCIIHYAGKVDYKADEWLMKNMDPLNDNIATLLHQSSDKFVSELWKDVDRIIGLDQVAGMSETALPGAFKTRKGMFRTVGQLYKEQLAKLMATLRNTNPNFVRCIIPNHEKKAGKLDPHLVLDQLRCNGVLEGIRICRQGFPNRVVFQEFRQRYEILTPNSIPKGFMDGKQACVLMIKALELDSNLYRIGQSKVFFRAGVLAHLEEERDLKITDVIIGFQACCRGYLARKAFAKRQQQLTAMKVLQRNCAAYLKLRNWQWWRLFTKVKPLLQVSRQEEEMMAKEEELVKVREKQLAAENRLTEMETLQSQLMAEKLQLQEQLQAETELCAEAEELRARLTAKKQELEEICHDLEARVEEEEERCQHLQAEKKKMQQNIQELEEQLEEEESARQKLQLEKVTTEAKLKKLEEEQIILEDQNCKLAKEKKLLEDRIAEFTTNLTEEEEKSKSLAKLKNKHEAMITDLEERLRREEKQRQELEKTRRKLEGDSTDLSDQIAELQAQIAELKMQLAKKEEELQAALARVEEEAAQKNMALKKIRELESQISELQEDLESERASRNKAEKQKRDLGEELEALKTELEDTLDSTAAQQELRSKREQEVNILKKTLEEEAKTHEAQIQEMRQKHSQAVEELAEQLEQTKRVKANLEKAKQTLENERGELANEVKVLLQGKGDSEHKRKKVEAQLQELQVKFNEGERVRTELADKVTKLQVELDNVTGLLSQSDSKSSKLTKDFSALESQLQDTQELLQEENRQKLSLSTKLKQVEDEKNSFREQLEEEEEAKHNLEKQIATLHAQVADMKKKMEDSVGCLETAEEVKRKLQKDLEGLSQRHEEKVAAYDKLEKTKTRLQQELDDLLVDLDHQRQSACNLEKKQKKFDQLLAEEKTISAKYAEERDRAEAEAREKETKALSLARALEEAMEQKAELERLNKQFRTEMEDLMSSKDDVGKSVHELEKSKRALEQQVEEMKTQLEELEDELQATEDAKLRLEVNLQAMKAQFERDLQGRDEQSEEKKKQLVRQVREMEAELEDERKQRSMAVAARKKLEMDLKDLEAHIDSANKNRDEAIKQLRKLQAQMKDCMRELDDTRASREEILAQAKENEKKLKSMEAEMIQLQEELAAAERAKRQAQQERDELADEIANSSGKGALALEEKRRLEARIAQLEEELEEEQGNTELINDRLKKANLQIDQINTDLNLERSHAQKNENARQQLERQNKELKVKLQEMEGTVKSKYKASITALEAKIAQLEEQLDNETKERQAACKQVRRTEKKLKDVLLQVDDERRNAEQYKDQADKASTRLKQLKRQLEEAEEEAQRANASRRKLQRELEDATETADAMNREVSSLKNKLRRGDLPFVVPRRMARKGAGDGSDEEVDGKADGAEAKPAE

Biological target: poly (ADP-ribose) polymerase 1 (PARP1) (human (endogenous in TOV-21G)) (UniProt P09874)
Assay: co-IP; TOV-21G cell lysates immunoprecipitated with the indicated antibodies, Western blot for p53 and MYH9; input 5% of the total cell extract; normal rabbit IgG as negative control, PARP1 as positive control

binding: binds
Substance: myosin 9 (MYH9) (from UniProt P35579 1-1960)
